{"source": "PubChem BioAssay AID493014", "about": "(National Center for Advancing Translational Sciences (NCATS), 2011)", "assay": "qHTS Assay to Find Inhibitors of Chronic Active B-Cell Receptor Signaling", "details": "ABC-DLBCL IkBa-CBG/CBR reporter, luminescence ratio (green luciferase fused to IkBa over red control in TMD8 lymphoma cells), 4 h", "summary_of_the_method": "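Concentration-response series (up to 46 uM) were applied to TMD8 dual-reporter cells for 4 h at 37C with doxycycline. Green/red ratio, after filter-overlap correction, defined %Activity; red signal alone was normalised to basal cells and zero luminescence.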", "key": {"[1]": {"details": "measured here: CBR red luminescence, cell number"}, "[2]": {"details": "measured here: IkBa-CBG green luminescence"}}, "note": "The list shows a part of the results. These are further read-outs of the screen, such as a control signal, another cell line or another target. No call is given for them. Compounds called inactive in the main read-out are mostly missing here. The note in brackets gives the kind of curve behind each potency; many fits are weak.", "data": [{"smiles": "CCC(C)[C@H](NC(=O)N1CCn2c1nc1ccccc12)C(=O)NCC1CCCO1", "note": "(stereo partly specified)", "values": [{"measurement": "AC50", "setting": "[1]", "value": "35.5 µM [falling, partial curve, poor fit]"}]}, {"smiles": "Cc1oncc1C(=O)Nc1ccc(C(F)(F)F)cc1", "values": [{"measurement": "AC50", "setting": "[1]", "value": "8.91 µM [falling, partial curve]"}]}, {"smiles": "COc1ccc(NC(=O)c2ccc(NC(=O)c3cccs3)cc2)cc1", "values": [{"measurement": "AC50", "setting": "[1]", "value": "3.16 µM [rising, full curve, poor fit]"}]}, {"smiles": "Cc1cccc2cc(CN(CCN(C)C)C(=S)NCc3ccco3)c(=O)[nH]c12", "values": [{"measurement": "AC50", "setting": "[1]", "value": "29.1 µM [falling, single point]"}]}, {"smiles": "C/C=C\\C=C/C(=O)Nc1cccc(C2=NOC3(C2)C[C@@H](C(N)=O)N(C(=O)c2ccccc2)C3)c1", "note": "(stereo partly specified)", "values": [{"measurement": "AC50", "setting": "[1]", "value": "4.47 µM [falling, partial curve, poor fit]"}]}, {"smiles": "Cc1nn(Cc2ccc(Cl)cc2Cl)c(Cl)c1/C=N/NC(=O)CNc1cccc(C(F)(F)F)c1", "values": [{"measurement": "AC50", "setting": "[1]", "value": "4.61 µM [rising, partial curve, poor fit]"}]}, {"smiles": "COc1ccccc1NC(=S)NNC(=O)c1nn(C)c(C)c1Cl", "values": [{"measurement": "AC50", "setting": "[1]", "value": "20.6 µM [falling, partial curve]"}]}, {"smiles": "Cc1ccc(-c2n[nH]c(=S)n2/N=C/c2c(C)nn(-c3ccccc3)c2C)cc1", "values": [{"measurement": "AC50", "setting": "[1]", "value": "2.59 µM [rising, partial curve, poor fit]"}]}, {"smiles": "N#Cc1nc(Cc2ccccc2)oc1NCCc1ccccc1", "values": [{"measurement": "AC50", "setting": "[1]", "value": "3.98 µM [rising, single point]"}]}, {"smiles": "C#CCOc1ccc(/C=C2/C(=O)NN(c3ccc(F)cc3)C2=O)cc1OC", "values": [{"measurement": "AC50", "setting": "[1]", "value": "0.316 µM [rising, single point]"}]}, {"smiles": "Cc1ccc(-c2nn(-c3ccccc3)cc2/C=N/n2c(-c3cccs3)n[nH]c2=S)cc1", "values": [{"measurement": "AC50", "setting": "[1]", "value": "35.5 µM [rising, single point]"}]}, {"smiles": "Cc1cc(N2CCOCC2)c2c(N)cc(C)c(C)c2n1", "values": [{"measurement": "AC50", "setting": "[1]", "value": "29.1 µM [rising, single point]"}]}, {"smiles": "Cc1ccccc1C(=O)Nc1ccc(C(=O)N/N=C/c2ccc(O)c(Br)c2)cc1", "values": [{"measurement": "AC50", "setting": "[1]", "value": "10 µM [falling, partial curve, poor fit]"}]}, {"smiles": "NS(=O)(=O)c1ccc(NC(=O)Nc2cccc3ccccc23)cc1", "values": [{"measurement": "AC50", "setting": "[1]", "value": "3.98 µM [falling, full curve]"}]}, {"smiles": "COc1ccc2[nH]c3c(c2c1)CCN1C(=O)C(CC(=O)NC(C)(C)C)C[C@H](C(=O)N2CCCCC2)[C@@]31C", "note": "(stereo partly specified)", "values": [{"measurement": "AC50", "setting": "[1]", "value": "0.164 µM [rising, full curve, poor fit]"}]}, {"smiles": "CNc1ccc(OC(F)F)cc1C(=O)c1ccccc1", "values": [{"measurement": "AC50", "setting": "[1]", "value": "35.5 µM [rising, single point]"}]}, {"smiles": "Cc1cccc2sc(NC(=O)CCNC(=O)c3ccco3)nc12", "values": [{"measurement": "AC50", "setting": "[1]", "value": "7.31 µM [falling, partial curve]"}]}, {"smiles": "Cc1cc(C(=O)CSc2nnc(-c3cccc(F)c3)n2N)c(C)n1Cc1ccc2c(c1)OCO2", "values": [{"measurement": "AC50", "setting": "[1]", "value": "29.1 µM [falling, partial curve, poor fit]"}]}, {"smiles": "CCOC(=O)N1C2=NC(C(=O)OC)=C(C(=O)OC)[C@@H]3N(C)c4ccccc4[C@]23C[C@H]1C(=O)OC", "values": [{"measurement": "AC50", "setting": "[1]", "value": "3.98 µM [rising, partial curve, poor fit]"}]}, {"smiles": "COC(=O)c1cn(CCOc2ccccc2F)c2ccccc12", "values": [{"measurement": "AC50", "setting": "[1]", "value": "1.64 µM [rising, partial curve, poor fit]"}]}, {"smiles": "CCn1cc(C(=O)NCCN(C)C)c(=O)c2cc(F)c(N3CCN(C)CC3)cc21", "values": [{"measurement": "AC50", "setting": "[1]", "value": "0.447 µM [falling, full curve, poor fit]"}]}, {"smiles": "Cc1cc(O)ccc1Nc1nc(-c2cccs2)cs1", "values": [{"measurement": "AC50", "setting": "[1]", "value": "3.55 µM [rising, single point]"}]}, {"smiles": "CCn1c(SCC(=O)N2CCOCC2)nc2oc3c(Cl)cc(Cl)cc3c(=O)c2c1=O", "values": [{"measurement": "AC50", "setting": "[1]", "value": "2.82 µM [rising, full curve, poor fit]"}]}, {"smiles": "O=C(C[C@@H]1C/C=C\\CC[C@H](Cc2ccc(F)cc2)C(=O)OC[C@@H]2CCCN2C1=O)N[C@H](CO)Cc1ccccc1", "values": [{"measurement": "AC50", "setting": "[1]", "value": "29.1 µM [falling, single point]"}]}, {"smiles": "Cc1nc2ccc(NC(=O)c3ccc(Br)o3)cc2s1", "values": [{"measurement": "AC50", "setting": "[1]", "value": "25.1 µM [falling, single point]"}]}, {"smiles": "Oc1cccc(NC(=S)N=Nc2c(O)[nH]c3ccccc23)c1", "values": [{"measurement": "AC50", "setting": "[1]", "value": "12.6 µM [falling, partial curve, poor fit]"}]}, {"smiles": "O=C(c1c[nH]c2ccccc12)N1CCN(Cc2ccccc2)CC1", "values": [{"measurement": "AC50", "setting": "[1]", "value": "7.08 µM [falling, full curve]"}]}, {"smiles": "O=C(CSc1nnc(-c2ccccn2)o1)Nc1ccccc1Cl", "values": [{"measurement": "AC50", "setting": "[1]", "value": "8.91 µM [falling, partial curve, poor fit]"}]}, {"smiles": "C=CCNC(=O)c1cc(-c2ccccc2O)on1", "values": [{"measurement": "AC50", "setting": "[1]", "value": "2.06 µM [falling, full curve]"}]}, {"smiles": "Cc1ccc2nc(SCC(=O)Nc3oc(C)c4c(C)n[nH]c(=O)c34)[nH]c2c1", "values": [{"measurement": "AC50", "setting": "[1]", "value": "29.1 µM [falling, single point]"}]}, {"smiles": "CCc1[nH]nc2c1C(C1C=CCCC1)C(C#N)=C(N)O2", "note": "(stereo unspecified)", "values": [{"measurement": "AC50", "setting": "[1]", "value": "11.2 µM [falling, partial curve]"}]}, {"smiles": "CN(C(=O)CCCN1C(=O)c2cccc3cccc(c23)C1=O)c1ccccc1", "values": [{"measurement": "AC50", "setting": "[1]", "value": "20.6 µM [rising, single point]"}, {"measurement": "AC50", "setting": "[2]", "value": "6.51 µM [rising, partial curve, poor fit]"}]}, {"smiles": "Cc1cccc(NC(=O)CCSc2ccccc2)c1C", "values": [{"measurement": "AC50", "setting": "[1]", "value": "35.5 µM [falling, single point]"}]}, {"smiles": "CCOC1(OCC)C(c2ccc(Cl)cc2)C(C#N)(C#N)C1(OCC)OCC", "note": "(stereo unspecified)", "values": [{"measurement": "AC50", "setting": "[1]", "value": "1.41 µM [falling, full curve]"}]}, {"smiles": "COc1ccc(S(=O)(=O)N2c3cc(C)ccc3OCC2C(C)(C)C)cc1", "note": "(stereo unspecified)", "values": [{"measurement": "AC50", "setting": "[1]", "value": "3.98 µM [rising, single point]"}]}, {"smiles": "Cc1cccc(N(C(=O)c2nsc(Cl)c2Cl)C(C(=O)NC2CCCC2)c2ccc(O)cc2)c1", "note": "(stereo unspecified)", "values": [{"measurement": "AC50", "setting": "[1]", "value": "23.1 µM [falling, single point]"}]}, {"smiles": "COc1cccc(NC(=O)Nc2nc(SC)ns2)c1", "values": [{"measurement": "AC50", "setting": "[1]", "value": "3.98 µM [falling, partial curve]"}]}, {"smiles": "CCc1nnc(NC(=O)c2ccc(S(=O)(=O)N(CCOC)CCOC)cc2)s1", "values": [{"measurement": "AC50", "setting": "[1]", "value": "6.51 µM [falling, single point]"}, {"measurement": "AC50", "setting": "[2]", "value": "6.51 µM [rising, partial curve, poor fit]"}]}, {"smiles": "O=C(CC1(O)C(=O)Nc2cc(Cl)cc(Cl)c21)c1ccncc1", "note": "(stereo unspecified)", "values": [{"measurement": "AC50", "setting": "[1]", "value": "10.3 µM [falling, partial curve, poor fit]"}]}]}
